Laboratory results from publication PMC4575030 (PLoS ONE, 2015).

System: naïve rats
Experiment: Open field activity (basic movement)
Assay type: in vivo, rat
Details: diazepam 10 mg/kg
Description: Basic movement was measured using the Photobeam Activity System Open Field (San Diego Instruments, San Diego, CA) equipped with 48 infrared photocell emitters and detectors. Photobeams used to measure vertical movement were positioned 14 cm above the test chamber floor. Each testing chamber was made of Plexiglas (41 x 41 x 36 cm) and was devoid of any bedding. At the beginning of the test session, each animal was placed in a separate testing chamber and the room lights were turned off. Basic movement was measured for 30 minutes.

In the case of CN1C(=O)CN=C(c2ccccc2)c2cc(Cl)ccc21 [Diazepam, diazepam, reference compound], the “Reduction in basic movement” value is reported as 67%.
